Publication PMC12540712

The chains behind the UniProt entries cited, without tags or fusion partners. Where a name states a change or a piece, a line headed by the entry shows the natural chain unless it says otherwise.
UniProt Q16531: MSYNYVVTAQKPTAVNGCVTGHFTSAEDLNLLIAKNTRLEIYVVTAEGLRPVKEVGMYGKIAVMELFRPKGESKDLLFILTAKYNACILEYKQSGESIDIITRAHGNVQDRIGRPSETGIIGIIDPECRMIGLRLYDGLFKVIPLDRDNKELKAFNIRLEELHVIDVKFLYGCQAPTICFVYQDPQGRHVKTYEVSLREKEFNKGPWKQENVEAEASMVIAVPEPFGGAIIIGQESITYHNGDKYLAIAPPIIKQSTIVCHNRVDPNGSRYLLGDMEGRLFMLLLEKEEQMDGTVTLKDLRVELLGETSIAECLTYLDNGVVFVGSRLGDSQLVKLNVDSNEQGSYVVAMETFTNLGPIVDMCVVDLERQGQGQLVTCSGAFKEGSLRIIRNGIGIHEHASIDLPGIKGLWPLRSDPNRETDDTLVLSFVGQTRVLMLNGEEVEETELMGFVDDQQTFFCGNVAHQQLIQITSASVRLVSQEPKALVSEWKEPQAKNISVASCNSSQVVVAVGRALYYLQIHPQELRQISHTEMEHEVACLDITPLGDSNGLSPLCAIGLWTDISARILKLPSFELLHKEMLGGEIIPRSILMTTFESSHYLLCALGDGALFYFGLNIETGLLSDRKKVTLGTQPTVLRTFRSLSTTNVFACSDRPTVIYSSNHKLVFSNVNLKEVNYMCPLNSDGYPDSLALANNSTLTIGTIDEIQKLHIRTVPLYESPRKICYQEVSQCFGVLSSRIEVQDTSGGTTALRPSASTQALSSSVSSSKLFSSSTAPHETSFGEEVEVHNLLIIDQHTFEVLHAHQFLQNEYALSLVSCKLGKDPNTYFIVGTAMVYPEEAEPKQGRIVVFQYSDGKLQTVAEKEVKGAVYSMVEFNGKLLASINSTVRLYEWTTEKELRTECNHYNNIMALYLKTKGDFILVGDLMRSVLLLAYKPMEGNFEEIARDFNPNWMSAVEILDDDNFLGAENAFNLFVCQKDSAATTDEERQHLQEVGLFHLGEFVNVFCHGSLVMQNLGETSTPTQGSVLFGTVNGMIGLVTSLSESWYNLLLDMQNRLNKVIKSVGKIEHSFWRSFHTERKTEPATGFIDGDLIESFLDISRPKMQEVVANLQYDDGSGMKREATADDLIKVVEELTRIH
UniProt P28340: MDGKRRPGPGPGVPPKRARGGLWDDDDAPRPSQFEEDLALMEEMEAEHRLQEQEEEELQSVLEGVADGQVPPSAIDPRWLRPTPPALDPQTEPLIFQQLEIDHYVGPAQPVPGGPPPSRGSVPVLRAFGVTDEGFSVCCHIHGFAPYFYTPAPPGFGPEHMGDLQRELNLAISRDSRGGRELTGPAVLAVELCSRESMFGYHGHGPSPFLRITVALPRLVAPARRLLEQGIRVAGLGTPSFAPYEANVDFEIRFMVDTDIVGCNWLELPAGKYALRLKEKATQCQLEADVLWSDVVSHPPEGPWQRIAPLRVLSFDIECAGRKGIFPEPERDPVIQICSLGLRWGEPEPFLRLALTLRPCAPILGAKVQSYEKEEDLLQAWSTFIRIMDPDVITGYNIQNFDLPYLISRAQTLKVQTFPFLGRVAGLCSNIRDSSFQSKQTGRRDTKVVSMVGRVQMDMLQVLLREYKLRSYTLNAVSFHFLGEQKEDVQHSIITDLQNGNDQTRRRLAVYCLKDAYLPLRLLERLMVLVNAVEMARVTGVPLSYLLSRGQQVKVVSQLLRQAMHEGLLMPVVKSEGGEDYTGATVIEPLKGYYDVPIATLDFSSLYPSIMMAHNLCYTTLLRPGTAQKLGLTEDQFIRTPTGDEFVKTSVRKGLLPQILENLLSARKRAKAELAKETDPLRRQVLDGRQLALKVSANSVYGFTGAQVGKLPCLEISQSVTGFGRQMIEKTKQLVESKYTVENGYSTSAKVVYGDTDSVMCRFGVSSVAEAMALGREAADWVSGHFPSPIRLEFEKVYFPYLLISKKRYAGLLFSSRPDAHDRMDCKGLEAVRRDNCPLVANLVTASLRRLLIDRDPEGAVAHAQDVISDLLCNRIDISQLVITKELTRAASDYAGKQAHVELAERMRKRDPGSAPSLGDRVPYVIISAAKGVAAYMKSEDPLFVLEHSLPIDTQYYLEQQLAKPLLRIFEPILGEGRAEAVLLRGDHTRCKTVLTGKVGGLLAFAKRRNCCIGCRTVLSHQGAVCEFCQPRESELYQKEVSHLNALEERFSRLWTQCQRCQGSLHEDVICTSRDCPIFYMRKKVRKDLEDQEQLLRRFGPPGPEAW

Target: T1, FLAG-And-1, full-length And-1 (FL, 1–1129) (human) (UniProt O75717)
T1 sequence: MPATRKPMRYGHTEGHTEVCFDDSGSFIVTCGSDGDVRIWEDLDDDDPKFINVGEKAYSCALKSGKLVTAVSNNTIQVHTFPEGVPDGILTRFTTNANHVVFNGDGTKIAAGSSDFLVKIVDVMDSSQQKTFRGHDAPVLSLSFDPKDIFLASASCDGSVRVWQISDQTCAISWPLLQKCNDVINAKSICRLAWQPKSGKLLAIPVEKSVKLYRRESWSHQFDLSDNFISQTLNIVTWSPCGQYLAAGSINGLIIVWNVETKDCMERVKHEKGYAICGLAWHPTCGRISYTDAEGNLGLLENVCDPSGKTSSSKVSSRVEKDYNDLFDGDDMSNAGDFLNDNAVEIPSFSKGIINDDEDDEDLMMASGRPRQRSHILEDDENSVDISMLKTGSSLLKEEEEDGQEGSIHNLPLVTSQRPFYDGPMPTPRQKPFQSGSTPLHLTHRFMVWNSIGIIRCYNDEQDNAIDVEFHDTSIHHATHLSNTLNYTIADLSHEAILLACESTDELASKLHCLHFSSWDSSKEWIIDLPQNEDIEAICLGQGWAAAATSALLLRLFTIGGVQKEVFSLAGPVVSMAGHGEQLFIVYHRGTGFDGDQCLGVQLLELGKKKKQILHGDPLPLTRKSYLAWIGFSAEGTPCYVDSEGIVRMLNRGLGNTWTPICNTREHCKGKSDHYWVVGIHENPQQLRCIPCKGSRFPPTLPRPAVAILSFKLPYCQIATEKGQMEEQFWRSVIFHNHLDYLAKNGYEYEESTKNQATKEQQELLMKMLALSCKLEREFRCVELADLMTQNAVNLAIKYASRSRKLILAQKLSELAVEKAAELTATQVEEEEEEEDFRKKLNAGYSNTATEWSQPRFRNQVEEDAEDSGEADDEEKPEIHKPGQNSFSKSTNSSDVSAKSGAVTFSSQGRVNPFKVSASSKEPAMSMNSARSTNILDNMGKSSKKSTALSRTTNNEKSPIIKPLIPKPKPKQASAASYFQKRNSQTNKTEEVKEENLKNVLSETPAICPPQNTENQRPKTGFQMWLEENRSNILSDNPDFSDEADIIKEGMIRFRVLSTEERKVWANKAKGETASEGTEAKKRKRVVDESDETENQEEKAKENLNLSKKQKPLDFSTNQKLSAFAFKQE
Test: affinity purification with mass spectrometry; FLAG-And-1 pulled down with Flag-beads from lysates of transfected HEK293T cells, with or without UVB 100 mJ/cm2 (harvested 1 h after); ethidium bromide and DNase I in the lysis buffer

Substance | binding
DDB1 (from UniProt Q16531 1-1140) | binds
catalytic subunit of DNA polymerase δ (p125) (from UniProt P28340 1-1107) | binds

No constants are given. Whether binding was seen depends on the method and setting. In cells and extracts the contact can be indirect. Here binding means that the protein was enriched with, or labelled near, the bait; the list need not be complete. Where a sequence is shown, tags or fusion partners need not be part of it.
